Our source for the binding values is PMC5915600.

The chains behind the UniProt entries cited, without tags or fusion partners.
UniProt Q16531: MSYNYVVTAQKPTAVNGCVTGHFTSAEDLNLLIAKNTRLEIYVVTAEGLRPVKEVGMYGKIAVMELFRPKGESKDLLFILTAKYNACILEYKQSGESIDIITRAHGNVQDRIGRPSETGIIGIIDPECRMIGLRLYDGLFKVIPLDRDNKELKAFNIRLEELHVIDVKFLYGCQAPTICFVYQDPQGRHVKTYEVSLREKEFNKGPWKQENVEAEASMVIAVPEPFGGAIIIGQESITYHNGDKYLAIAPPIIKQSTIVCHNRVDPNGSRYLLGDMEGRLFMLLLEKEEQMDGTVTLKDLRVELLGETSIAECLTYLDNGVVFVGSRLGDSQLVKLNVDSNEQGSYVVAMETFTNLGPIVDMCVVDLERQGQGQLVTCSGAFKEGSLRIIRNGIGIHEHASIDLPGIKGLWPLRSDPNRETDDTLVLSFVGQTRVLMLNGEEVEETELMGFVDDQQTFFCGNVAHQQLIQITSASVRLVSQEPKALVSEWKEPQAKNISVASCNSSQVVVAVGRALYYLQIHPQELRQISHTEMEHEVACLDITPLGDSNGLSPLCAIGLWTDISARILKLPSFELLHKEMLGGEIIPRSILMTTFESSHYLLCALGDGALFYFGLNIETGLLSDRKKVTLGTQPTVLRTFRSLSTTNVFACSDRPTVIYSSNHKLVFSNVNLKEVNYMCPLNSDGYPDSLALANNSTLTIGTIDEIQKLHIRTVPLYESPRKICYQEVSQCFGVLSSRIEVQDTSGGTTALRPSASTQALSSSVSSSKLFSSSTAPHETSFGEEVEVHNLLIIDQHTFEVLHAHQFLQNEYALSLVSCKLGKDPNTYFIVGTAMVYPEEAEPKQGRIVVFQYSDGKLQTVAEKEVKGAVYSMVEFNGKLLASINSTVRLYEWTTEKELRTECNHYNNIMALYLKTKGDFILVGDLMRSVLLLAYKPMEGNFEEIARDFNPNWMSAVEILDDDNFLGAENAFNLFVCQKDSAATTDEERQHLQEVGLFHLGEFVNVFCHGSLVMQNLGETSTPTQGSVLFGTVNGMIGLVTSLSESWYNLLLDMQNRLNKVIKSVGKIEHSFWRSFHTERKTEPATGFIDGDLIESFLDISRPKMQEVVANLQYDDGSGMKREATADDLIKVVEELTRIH
UniProt Q969R5: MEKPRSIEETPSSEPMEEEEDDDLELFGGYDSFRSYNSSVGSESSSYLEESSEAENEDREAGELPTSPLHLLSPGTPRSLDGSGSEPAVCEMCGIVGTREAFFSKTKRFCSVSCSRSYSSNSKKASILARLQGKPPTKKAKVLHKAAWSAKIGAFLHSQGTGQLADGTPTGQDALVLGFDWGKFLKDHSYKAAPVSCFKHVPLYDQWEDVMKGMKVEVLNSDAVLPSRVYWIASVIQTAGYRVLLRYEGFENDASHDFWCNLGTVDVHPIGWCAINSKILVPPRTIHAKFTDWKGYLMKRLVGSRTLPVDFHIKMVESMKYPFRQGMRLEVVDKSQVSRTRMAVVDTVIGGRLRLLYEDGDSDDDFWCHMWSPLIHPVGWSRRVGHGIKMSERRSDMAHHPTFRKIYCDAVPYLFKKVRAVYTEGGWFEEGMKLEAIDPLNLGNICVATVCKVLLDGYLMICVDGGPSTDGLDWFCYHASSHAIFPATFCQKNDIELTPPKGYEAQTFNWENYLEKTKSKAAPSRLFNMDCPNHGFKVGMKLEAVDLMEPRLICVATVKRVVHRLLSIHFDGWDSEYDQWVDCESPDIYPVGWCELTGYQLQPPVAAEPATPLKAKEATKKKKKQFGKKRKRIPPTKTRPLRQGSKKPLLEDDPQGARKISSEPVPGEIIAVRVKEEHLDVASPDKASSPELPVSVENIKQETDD

The target in assay [1] is T1, L3MBTL3, endogenous (human (endogenous in HCT116)) (UniProt Q96JM7).
T1 sequence: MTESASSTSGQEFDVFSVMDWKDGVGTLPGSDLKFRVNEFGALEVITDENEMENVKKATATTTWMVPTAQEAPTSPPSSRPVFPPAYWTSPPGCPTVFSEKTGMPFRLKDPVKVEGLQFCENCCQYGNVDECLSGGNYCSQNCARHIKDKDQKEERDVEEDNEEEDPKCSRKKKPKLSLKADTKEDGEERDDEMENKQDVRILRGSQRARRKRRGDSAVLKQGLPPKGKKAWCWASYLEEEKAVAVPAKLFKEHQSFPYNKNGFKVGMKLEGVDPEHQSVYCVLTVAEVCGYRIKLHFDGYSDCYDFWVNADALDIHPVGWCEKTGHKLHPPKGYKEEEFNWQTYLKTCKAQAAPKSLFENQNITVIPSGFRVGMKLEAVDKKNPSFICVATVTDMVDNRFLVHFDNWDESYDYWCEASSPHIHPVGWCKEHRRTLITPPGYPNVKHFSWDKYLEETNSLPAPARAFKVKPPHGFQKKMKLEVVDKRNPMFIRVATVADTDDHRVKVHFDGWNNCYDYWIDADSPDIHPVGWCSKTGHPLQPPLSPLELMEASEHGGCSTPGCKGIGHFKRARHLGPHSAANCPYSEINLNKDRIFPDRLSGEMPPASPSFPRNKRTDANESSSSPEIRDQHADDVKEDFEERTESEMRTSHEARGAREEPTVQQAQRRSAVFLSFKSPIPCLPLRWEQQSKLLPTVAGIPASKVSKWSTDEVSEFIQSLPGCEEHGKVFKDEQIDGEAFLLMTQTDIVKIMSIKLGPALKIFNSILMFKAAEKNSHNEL
Briefly: co-IP; endogenous proteins immunoprecipitated from HCT116 lysates (0.5% NP40, 50 mM Tris pH 7.5, 150 mM NaCl; usually 500 μg lysate; Protein A-Sepharose), western blot; in some panels cells with SET7 expression, SET7 or PHF20L1 siRNA, MG132 5 μg/ml for the last 6 h. (A western blot detects proteins with antibodies after separation by electrophoresis.)

For assay [2], the target named is T2, cognate unmethylated K142 peptide of DNMT1 (human).
T2 sequence (peptide, coupled to Sulfolink resin through the C-terminal cysteine): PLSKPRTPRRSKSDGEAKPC
Briefly: pull-down; DNMT1 K142me1 or K142me0 peptide on Sulfolink resin, pre-blocked with 5 μg GST for 2 h, then 1.5 μg GST fusion protein in 0.1% NP40, 50 mM Tris-Cl pH 7.5, 150 mM NaCl at 4 °C; western blot; both purified.

Results are given in words; binding and its absence hold for the method and conditions named. For some assays here: Binding seen in cells or lysates may run through a third protein. Some binding calls cover weakened binding; strength is not graded here.

For the substance “DDB1, endogenous (from UniProt Q16531 1-1140)”, in assay [1], the binding result was “binds”.

GST-L3MBTL2 (from UniProt Q969R5 1-705): the binding result in assay [2] is listed as “no binding (tested: 1.5 μg)”.
